We go through three molecules from PMC7485985.

Sequences of proteins named here, by UniProt entry; tags and fusion partners are left off.
UniProt Q336P5: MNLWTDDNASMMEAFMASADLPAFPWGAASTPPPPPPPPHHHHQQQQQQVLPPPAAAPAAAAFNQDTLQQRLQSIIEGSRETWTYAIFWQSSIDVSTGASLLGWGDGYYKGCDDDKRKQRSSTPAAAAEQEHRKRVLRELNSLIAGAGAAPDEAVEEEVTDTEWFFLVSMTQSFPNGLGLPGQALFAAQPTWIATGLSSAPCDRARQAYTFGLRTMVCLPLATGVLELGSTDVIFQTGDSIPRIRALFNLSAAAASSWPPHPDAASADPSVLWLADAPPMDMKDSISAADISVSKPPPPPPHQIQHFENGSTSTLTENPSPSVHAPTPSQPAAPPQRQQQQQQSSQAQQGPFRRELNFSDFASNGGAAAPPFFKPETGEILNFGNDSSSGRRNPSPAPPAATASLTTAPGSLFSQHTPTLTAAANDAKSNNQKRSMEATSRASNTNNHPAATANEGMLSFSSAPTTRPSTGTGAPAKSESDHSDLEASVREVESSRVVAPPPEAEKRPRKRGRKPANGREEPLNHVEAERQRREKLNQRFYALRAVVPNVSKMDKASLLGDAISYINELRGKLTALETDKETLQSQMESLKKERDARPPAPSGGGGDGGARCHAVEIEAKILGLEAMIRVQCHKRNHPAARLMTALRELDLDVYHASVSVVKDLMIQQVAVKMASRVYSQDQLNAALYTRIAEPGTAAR

Assay [1] has as its target OsMYC2-NLuc (rice) (UniProt Q336P5). The assay can be described thus: split reporter; Luciferase Complementation Imaging (LCI); OsMYC2-NLuc and CLuc-OsGSK2 co-infiltrated into N. benthamiana leaves; 1 mM luciferin.
Assay [2] deals with MBP-OsMYC2 (rice) (UniProt Q336P5). The assay can be described thus: SPR; Biacore T200; MBP-OsMYC2 and MBP immobilised on CM5 chip by amino groups; GST-OsGSK2 (9.375 to 130 nmol/mL) and GST (12.5 to 200 nmol/mL) as analytes; both purified. Background: SPR reads the build-up and loss of mass on a sensor chip optically.
For assay [3], the target named is OsMYC2-GFP (rice) (UniProt Q336P5). The assay can be described thus: co-IP; OsMYC2-GFP and OsGSK2-Flag transiently expressed in N. benthamiana; extract in NB1 buffer; captured with GFP magnetic beads at 4°C; blots with anti-GFP and anti-Flag.

Results are given in words; binding and its absence hold for the method and conditions named. For part of these data: In cells and extracts the contact can be indirect. Some binding calls cover weakened binding; strength is not graded here. Tags and fused reporters may be left off the sequences shown.

B1: CLuc-OsGSK2 (enzyme, UniProt Q60EZ2 1-402)
chain: MDQPAPAPEPMLLDAQPPAAVACDKKQQEGEAPYAEGNDAVTGHIISTTIGGKNGEPKRTISYMAERVVGTGSFGIVFQAKCLETGETVAIKKVLQDRRYKNRELQLMRAMDHPNVISLKHCFFSTTSRDELFLNLVMEYVPETLYRVLKHYSNANHRMPLIYVKLYMYQLFRGLAYIHTVPGVCHRDVKPQNVLVDPLTHQVKLCDFGSAKTLVPGEPNISYICSRYYRAPELIFGATEYTTSIDIWSAGCVLAELLLGQPLFPGESAVDQLVEIIKVLGTPTREEIRCMNPNYTEFRFPQIKAHPWHKVFHKRMPPEAIDLASRLLQYSPSLRCTALDACAHPFFDELREPNARLPNGRPFPPLFNFKHELANSSQELISRLIPEHVRRQATHNFFNTGS
Regarding B1, the binding result in assay [1] was “binds”.

B2: GST-OsGSK2 (enzyme, UniProt Q60EZ2 1-402)
chain: B1 chain
Regarding B2, the binding entry in assay [2] is “binds”.

B3: OsGSK2-Flag (enzyme, UniProt Q60EZ2 1-402)
chain: B1 chain
For the molecule B3, the binding result in assay [3] is “binds”.
